Values from PubChem BioAssay AID1159584 (Peter MacCallum Cancer Centre, 2016)

Assay: 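Genes whose loss is lethal only together with E-cadherin loss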 (primary screen)
Cells: human MCF10A breast epithelial cells, parental and CDH1-null
Reagents: siRNA against human genes
Read-out: 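ATP luminescence (CellTiter-Glo) viability per line relative to mean mock wells over all plates, and the ratio of CDH1-null to parental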
Direction: CDH1-null / parental viability ratio: higher = CDH1-null cells survive relatively better than parental; CDH1-null viability vs mock: higher = more viable CDH1-null cells
Here is an unselected part of about 18,000 deposited reagents. Not all columns of the deposit are shown. The record does not give: the amount of reagent, the time to read-out.

| Gene | CDH1-null / parental viability ratio | CDH1-null viability vs mock (fraction of mock) |
| --- | --- | --- |
| OR2T33 | 1.07 | 0.64 |
| SLC6A4 | 1.01 | 0.89 |
| CDC14B | 1.69 | 0.81 |
| FOSB | 1.33 | 1.2 |
| DEFB1 | 0.79 | 0.55 |
| CMTM2 | 0.96 | 0.88 |
| TASP1 | 1.26 | 0.78 |
| PSMB5 | 1.17 | 0.47 |
| PHF10 | 0.9 | 0.78 |
| RNF183 | 0.81 | 0.87 |
| C3orf70 | 1.06 | 1.03 |
| UGT2B15 | 0.95 | 0.95 |
| PRNT | 1.12 | 0.58 |
| GABBR1 | 1.28 | 0.92 |
| KHDRBS3 | 0.92 | 0.88 |
| SP2 | 0.88 | 1.02 |
| METTL14 | 0.83 | 0.78 |
| EYA4 | 1.28 | 0.82 |
| ERP29 | 1.47 | 0.75 |
| CLN5 | 1 | 0.7 |
| AGO2 | 1 | 0.9 |
| PDGFRA | 0.93 | 0.8 |
| ZNF468 | 0.89 | 0.68 |
| ARL8A | 0.93 | 0.56 |
| PNLIPRP1 | 0.93 | 0.82 |
| MPPE1 | 0.95 | 0.88 |
| ANXA5 | 0.88 | 0.66 |
| C12orf76 | 1.3 | 0.6 |
| TMEM86A | 1.36 | 0.68 |
| PABPC4 | 0.87 | 0.94 |
| ECT2 | 0.93 | 1.02 |
| DNAAF4 | 0.84 | 0.56 |
| LRRK1 | 1.12 | 0.94 |
| HAUS7 | 1.34 | 0.91 |
| RBP5 | 0.86 | 0.76 |
| MFAP2 | 0.76 | 0.62 |

A run of entries of the results above, for reference:
| Gene | CDH1-null / parental viability ratio | CDH1-null viability vs mock (fraction of mock) |
| --- | --- | --- |
| FOSB | 1.33 | 1.2 |
| DEFB1 | 0.79 | 0.55 |
| CMTM2 | 0.96 | 0.88 |
| TASP1 | 1.26 | 0.78 |
| PSMB5 | 1.17 | 0.47 |
| PHF10 | 0.9 | 0.78 |
| RNF183 | 0.81 | 0.87 |
| C3orf70 | 1.06 | 1.03 |
| UGT2B15 | 0.95 | 0.95 |

Continued.
| Gene | CDH1-null / parental viability ratio | CDH1-null viability vs mock (fraction of mock) |
| --- | --- | --- |
| DRAP1 | 0.92 | 0.7 |
| SNX27 | 1.02 | 0.83 |
| MSMP | 1.5 | 0.87 |
| BPI | 1.04 | 1.12 |
| POM121 | 0.85 | 0.66 |
| OR10H1 | 0.78 | 0.57 |
| CES2 | 1.31 | 0.76 |
| GSTA1 | 0.74 | 0.62 |
| KLK10 | 1.27 | 0.79 |
| GLRA2 | 1.05 | 0.86 |
| KTI12 | 1.11 | 0.84 |
| SHISA6 | 0.81 | 0.7 |
| DKK3 | 0.96 | 0.52 |
| TXNDC8 | 1.11 | 0.8 |
| ARB2A | 1.06 | 0.9 |
| NEIL2 | 0.93 | 0.84 |
| AMBRA1 | 0.76 | 0.74 |
| RASA2 | 1.1 | 1.08 |
| LRRN4 | 1.09 | 0.89 |
| CXCL10 | 1.18 | 1.04 |
| SLC35F5 | 0.97 | 0.74 |
| OR2T29 | 1.03 | 0.8 |
| C5orf15 | 1.19 | 0.57 |
| PRG3 | 1.07 | 1.23 |
| FILIP1 | 0.88 | 0.86 |
| GTF2B | 1.11 | 1.25 |
| MYDGF | 1.11 | 0.98 |
| RPRD2 | 0.94 | 0.79 |
| ZNF510 | 1.36 | 1.01 |
| CHSY3 | 0.83 | 0.73 |
| ZNF169 | 1.25 | 1.25 |
| PAGE5 | 1.38 | 0.76 |
| TCP10L3 | 0.88 | 0.5 |
| LPAR2 | 0.84 | 0.74 |
| RGS10 | 1.08 | 0.84 |
| GARIN4 | 0.97 | 0.68 |
| MATN1 | 1.2 | 1.08 |
| PRORSD1P | 1.12 | 0.64 |
| BST2 | 1.16 | 0.78 |
| RAB3IP | 1.02 | 0.85 |
| RB1CC1 | 1.15 | 0.75 |
| NAXE | 1.28 | 1.06 |
| GOLGA5 | 1.09 | 1.11 |
| CLEC4D | 1.01 | 1.1 |
| ZNF775 | 0.95 | 0.76 |
| MTMR2 | 1.53 | 0.95 |
| SLC7A3 | 0.74 | 0.73 |
| MLN | 1.02 | 0.94 |
| NRROS | 0.95 | 0.55 |
| SARDH | 1.14 | 0.96 |
| CSHL1 | 1.03 | 0.72 |
